Test results: doi:10.1101/2022.11.11.516101
Read-outs that look alike come from different tables or passages of the source. These are yes or no findings as the source states them, for the method shown. Binding seen in cells or lysates may run through a third protein. Some results given as binding are weak or reduced against the parent protein; the word gives no strength. Tags and fused reporters may be left off the sequences shown.

Sequences of proteins named here, by UniProt entry; tags and fusion partners are left off.
UniProt Q03195: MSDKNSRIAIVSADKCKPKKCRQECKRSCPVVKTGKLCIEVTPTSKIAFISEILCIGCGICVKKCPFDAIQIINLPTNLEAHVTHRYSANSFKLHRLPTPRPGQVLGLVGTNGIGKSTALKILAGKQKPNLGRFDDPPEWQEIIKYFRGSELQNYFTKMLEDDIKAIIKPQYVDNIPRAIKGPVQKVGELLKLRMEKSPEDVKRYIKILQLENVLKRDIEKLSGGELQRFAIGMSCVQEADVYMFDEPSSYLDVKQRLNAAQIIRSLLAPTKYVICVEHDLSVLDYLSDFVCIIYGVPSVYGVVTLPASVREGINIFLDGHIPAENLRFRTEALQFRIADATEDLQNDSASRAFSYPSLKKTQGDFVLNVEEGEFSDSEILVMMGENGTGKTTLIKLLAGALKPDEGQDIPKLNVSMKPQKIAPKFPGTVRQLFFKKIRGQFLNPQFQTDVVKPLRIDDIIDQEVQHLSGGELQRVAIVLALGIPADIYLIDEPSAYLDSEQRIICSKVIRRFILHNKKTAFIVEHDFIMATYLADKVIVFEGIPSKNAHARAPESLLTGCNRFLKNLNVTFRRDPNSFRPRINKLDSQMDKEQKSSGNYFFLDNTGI

T1: GFP-tagged Dom34 (S. cerevisiae) (UniProt P33309)
T1 sequence: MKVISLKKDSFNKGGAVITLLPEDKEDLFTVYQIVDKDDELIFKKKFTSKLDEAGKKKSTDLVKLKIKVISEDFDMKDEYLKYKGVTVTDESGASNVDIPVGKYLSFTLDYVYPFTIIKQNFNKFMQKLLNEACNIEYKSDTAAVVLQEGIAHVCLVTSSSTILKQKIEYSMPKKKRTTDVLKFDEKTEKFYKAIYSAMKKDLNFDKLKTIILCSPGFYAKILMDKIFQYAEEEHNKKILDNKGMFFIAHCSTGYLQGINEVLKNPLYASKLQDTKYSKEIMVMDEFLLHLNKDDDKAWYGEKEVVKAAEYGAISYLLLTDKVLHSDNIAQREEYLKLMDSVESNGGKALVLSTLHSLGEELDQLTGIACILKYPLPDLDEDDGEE

T2: preformed complex of GST-Dbp5 and Dom34-GFP (S. cerevisiae) (UniProt P33309+P20449)
T2 sequence 1: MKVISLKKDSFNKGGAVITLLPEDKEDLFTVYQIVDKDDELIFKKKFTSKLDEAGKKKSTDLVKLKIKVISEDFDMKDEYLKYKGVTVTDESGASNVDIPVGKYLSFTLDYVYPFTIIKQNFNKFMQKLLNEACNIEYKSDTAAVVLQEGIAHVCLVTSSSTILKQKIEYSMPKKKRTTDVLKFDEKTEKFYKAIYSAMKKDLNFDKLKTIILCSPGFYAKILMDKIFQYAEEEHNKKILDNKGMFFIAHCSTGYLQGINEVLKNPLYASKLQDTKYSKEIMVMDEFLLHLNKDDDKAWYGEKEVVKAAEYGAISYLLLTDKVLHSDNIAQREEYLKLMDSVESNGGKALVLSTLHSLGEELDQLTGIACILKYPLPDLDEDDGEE
T2 sequence 2: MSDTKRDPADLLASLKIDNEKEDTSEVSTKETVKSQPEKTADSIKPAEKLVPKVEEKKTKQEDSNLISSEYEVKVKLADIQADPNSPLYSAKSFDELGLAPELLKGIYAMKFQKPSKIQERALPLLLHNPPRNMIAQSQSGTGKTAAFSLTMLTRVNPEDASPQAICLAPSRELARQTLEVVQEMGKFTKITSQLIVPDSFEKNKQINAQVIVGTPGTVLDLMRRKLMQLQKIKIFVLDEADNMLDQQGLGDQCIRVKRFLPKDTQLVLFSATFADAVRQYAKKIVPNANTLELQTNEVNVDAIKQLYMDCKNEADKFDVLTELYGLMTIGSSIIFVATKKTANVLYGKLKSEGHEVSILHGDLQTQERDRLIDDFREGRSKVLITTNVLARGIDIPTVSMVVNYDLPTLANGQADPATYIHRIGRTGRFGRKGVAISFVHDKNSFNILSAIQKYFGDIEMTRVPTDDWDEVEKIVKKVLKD


Tests used:
Test in all cases: pull-down
[1] = biological target: T1, GFP-tagged Dom34 (S. cerevisiae)
[2] = biological target: T1, GFP-tagged Dom34 (S. cerevisiae); remark: listed apart in the source
[3] = biological target: T2, preformed complex of GST-Dbp5 and Dom34-GFP (S. cerevisiae)

| binding [3] | Molecule | binding [1] | binding [2] |
| --- | --- | --- | --- |
|  | recombinant GST-Rli1 (from UniProt Q03195 1-608) | binds | binds |
| binds | MYC-tagged Hbs1 (protein, UniProt P32769 1-611) MAYSDYSDGADDMPDFHDEGEFDDYLNDDEYDLMNEVFPTLKAQLQDYQGWDNLSLKLALFDNNFDLESTLAELKKTLKKKKTPKKPIAAANGSANVTQKLANISISQQRPNDRLPDWLDEEESEGERNGEEANDEKTVQRYYKTTVPTKPKKPHDISAFVKSALPHLSFVVLGHVDAGKSTLMGRLLYDLNIVNQSQLRKLQRESETMGKSSFKFAWIMDQTNEERERGVTVSICTSHFSTHRANFTIVDAPGHRDFVPNAIMGISQADMAILCVDCSTNAFESGFDLDGQTKEHMLLASSLGIHNLIIAMNKMDNVDWSQQRFEEIKSKLLPYLVDIGFFEDNINWVPISGFSGEGVYKIEYTDEVRQWYNGPNLMSTLENAAFKISKENEGINKDDPFLFSVLEIIPSKKTSNDLALVSGKLESGSIQPGESLTIYPSEQSCIVDKIQVGSQQGQSTNHEETDVAIKGDFVTLKLRKAYPEDIQNGDLAASVDYSSIHSAQCFVLELTTFDMNRPLLPGTPFILFIGVKEQPARIKRLISFIDKGNTASKKKIRHLGSKQRAFVEIELIEVKRWIPLLTAHENDRLGRVVLRKDGRTIAAGKISEITQ |  |  |
